Reference: PubChem BioAssay AID1671195 (Yale University, 2021)
This is one part, drawn at random, of about 22,000 reagents. About 1,510 of them (6.9%) count as active. 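Active includes knockdowns raising or lowering LDL uptake; positive z-scores mean more uptake, negative mean less.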 A number with no mark means an inactive call. Reagents against one gene are numbered here.

Test: 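Knockdowns that increase or decrease uptake of fluorescent LDL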 (primary screen)
System: human Huh7 hepatoma cells
Knock-down reagent: siRNA pool against human genes, 18 nM
Duration: about 2 to 2.5 days of knockdown, then 8 h LDL uptake
Challenge: DiI-labelled LDL at 30 µg/ml for 8 h, in lipoprotein-deficient serum medium
Detection: 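Fluorescent LDL signal imaged in cells, scaled to the plate median, robust z-score for each replicate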
Reading the numbers: robust z-score: higher = more LDL uptake after knockdown
Call rule: 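a gene counts as active if at least two replicate z-scores exceed ±2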

gene	pool no.	robust z-score, replicate 1	robust z-score, replicate 2	robust z-score, replicate 3
INTS4 (integrator complex subunit 4)	1	-1.81	-1.25	-1.58
DYNC1LI1 (dynein cytoplasmic 1 light intermediate chain 1)	1	1.49	1.09	2.94
TPSD1 (tryptase delta 1)	1	-1.34	-1.07	-1.25
BCL11A (BCL11 transcription factor A)	1	0.0318	0.0933	1.25
MMP12 (matrix metallopeptidase 12)	1	-0.659	0.308	0.19
SAP30L (SAP30 like)	1	0.154	0.708	0.535
FSD1 (fibronectin type III and SPRY domain containing 1)	1	0.12	-0.25	1.69
LOC391844 (retired record)	1	1.45	0.273	0.0548
LINC02372 (long independently transcribed non-coding RNA 2372)	1	0.449	0.45	0.0814
CPSF1 (cleavage and polyadenylation specific factor 1)	1	-4.18 (active)	-2.64	-1.72
OR6B2 (olfactory receptor family 6 subfamily B member 2)	1	-1.29	-1.23	-1.16
HBE1 (hemoglobin subunit epsilon 1)	1	2.96	0.416	-2.38
PATE4 (prostate and testis expressed 4)	1	-0.516	-1.68	-1.61
LOC440710 (retired record)	1	0.585	0.645	0.274
GNRH1 (gonadotropin releasing hormone 1)	1	-0.595	-0.0359	-1.96

The list goes on (4 carried over from the part before).
gene	pool no.	robust z-score, replicate 1	robust z-score, replicate 2	robust z-score, replicate 3
HBE1 (hemoglobin subunit epsilon 1)	1	2.96	0.416	-2.38
PATE4 (prostate and testis expressed 4)	1	-0.516	-1.68	-1.61
LOC440710 (retired record)	1	0.585	0.645	0.274
GNRH1 (gonadotropin releasing hormone 1)	1	-0.595	-0.0359	-1.96
IFNGR1 (interferon gamma receptor 1)	1	0.146	-0.626	0.027
SLC36A1	1	-1.77	-2.04	-1.63
ALYREF (Aly/REF export factor)	1	-1.3	-0.9	-0.97
GUCD1 (guanylyl cyclase domain containing 1)	1	-1.32	-0.396	-0.602
SLC24A1	1	1.45	0.31	1.01
AGER (advanced glycosylation end-product specific receptor)	1	-2.29 (active)	-2.35	-2.29
LOC389243 (retired record)	1	-0.232	-0.252	-0.363
HLA-B (major histocompatibility complex, class I, B)	1	-1.09	-0.42	-0.99
RETREG2 (reticulophagy regulator family member 2)	1	-0.139	-0.0453	-0.873
NCOA7 (nuclear receptor coactivator 7)	1	-2.25	-1.09	-1.54
KLF7 (KLF transcription factor 7)	1	-0.302	-0.198	0.0619
JCAD (junctional cadherin 5 associated)	1	-0.469	-0.7	-0.691
LOC389656 (retired record)	1	-0.133	-0.245	-0.288
SLC25A27	1	-0.678	-0.541	-0.393
TSNARE1 (t-SNARE domain containing 1)	1	-0.499	-1.02	-0.901
KRTAP3-2 (keratin associated protein 3-2)	1	0.877	1.69	1.61
MRPL14 (mitochondrial ribosomal protein L14)	1	0.887	0.398	0.614
MON2 (MON2 regulator of endosome-to-Golgi trafficking)	1	-0.112	2.04	-0.395
LOC283586 (retired record)	1	0.417	0.243	1.22
PDGFRL (platelet derived growth factor receptor like)	1	-0.641	-0.0753	0.0683
GP2 (glycoprotein 2)	1	0.803	0.796	-1.09
NEGR1 (neuronal growth regulator 1)	1	-0.23	1.06	0.87
COXFA4 (cytochrome c oxidase associated subunit FA4)	1	0.679	-0.0265	-0.476
DDIT4L (DNA damage inducible transcript 4 like)	1	0.124	-0.738	-0.793
PSMC6 (proteasome 26S subunit, ATPase 6)	1	0.593	-0.0833	-0.635
LONRF1 (LON peptidase N-terminal domain and ring finger 1)	1	-0.712	-1.38	3.33
THRAP3 (thyroid hormone receptor associated protein 3)	1	-0.71	1.06	-0.817
SMG1	1	0.455	0.399	0.778
DYDC1 (DPY30 domain containing 1)	1	-0.0649	-0.245	0.0163
RNF207 (ring finger protein 207)	1	0.442	0.147	0.237
RNF207 (ring finger protein 207)	2	-0.846	0.01	-1.21
